This passage reports T/C and survivor count results from PubChem BioAssay AID330 (DTP/NCI, 2004).

The list shows only some results of the screen, not a fair sample: it gathers tests that were run many times, whatever their T/C, doses with no T/C, and many T/C values between a quarter and a half above the control. Other doses and runs of a compound stand elsewhere. T/C gives the treated animals as a percentage of the vehicle group. Some entries give survivors of the animals treated and no T/C: the source files T/C as zero there, which appears to mark a toxic dose or a test without result, not a measured value. Some survivor counts are full or nearly so, which does not show that the dose was tolerated: survival well below the control is almost never listed, so the zero probably covers shortened survival too. Counts of survivors are from the toxicity check (mostly the fifth day) where no day follows; animals may have died later. Schedules are NCI's codes, taken here to give the interval after Q, in days (D) or hours (H), and the number of doses after X. Some entries were tested several times; the results are listed from low to high. For survival time, this PubChem deposit counts one and a half times the control or more as active, and values a quarter to a half above the control carry no call in these data; other NCI protocols may use other cut-offs. Some T/C values carry the count of animals alive at the toxicity check (mostly the fifth day); without a count, all were alive then. Marks such as (2×) stand for listed records that agree.

The experiment has as its system P388 leukemia ip, CD2F1 mice, survival T/C. Briefly: NCI In Vivo Anticancer Drug Screen. Data for tumor model P388 Leukemia (intraperitoneal) in CD2F1 (CDF1) mice. To be noted: T/C endpoint: median survival time, higher T/C = longer survival.
Setting [1] is: dose: 200.0 mg/kg/injection, schedule: Q01DX009 (ip), vehicle: Klucel (hydroxypropylcellulose) (HPC).
The mark [2] stands for this setting: dose: 25.0 mg/kg/injection, schedule: Q01DX009 (ip), vehicle: Klucel (hydroxypropylcellulose) (HPC).
Setting [3] is: dose: 50.0 mg/kg/injection, schedule: Q01DX009 (ip), vehicle: Klucel (hydroxypropylcellulose) (HPC).
Where [4] appears, read: dose: 100.0 mg/kg/injection, schedule: Q01DX009 (ip), vehicle: Klucel (hydroxypropylcellulose) (HPC).
The mark [5] stands for this setting: dose: 200.0 mg/kg/injection, schedule: Q01DX009 (ip), vehicle: saline with Tween-80.
Where [6] appears, read: dose: 120.0 mg/kg/injection, schedule: Q01DX005 (ip), vehicle: Klucel (hydroxypropylcellulose) (HPC).
[7] abbreviates: dose: 100.0 mg/kg/injection, schedule: Q01DX005 (ip), vehicle: saline with Tween-80.
Where [8] appears, read: dose: 200.0 mg/kg/injection, schedule: Q01DX005 (ip), vehicle: saline with Tween-80.
Where [9] appears, read: dose: 240.0 mg/kg/injection, schedule: Q01DX005 (ip), vehicle: saline with Tween-80.
The mark [10] stands for this setting: dose: 1111.11 mg/kg/injection, schedule: Q01DX005 (ip), vehicle: saline with Tween-80.

Consider `Cc1ccc(S(=O)(=O)OCOS(=O)(=O)c2ccc(C)cc2)cc1`, for which the T/C under setting [1] was 149 % of control.

With `Cc1ccc(Cl)c(C(O)(C(F)(F)F)C(F)(F)F)c1`, the survivor count (dose: 400.0 mg/kg/injection, schedule: Q01DX001 (ip), vehicle: other) was 4 of 6.

`CCN(CC)c1ccc2c(C)cc(=O)oc2c1`: the survivor count (dose: 100.0 mg/kg/injection, schedule: Q04DX003 (ip), vehicle: DMSO) is 5 of 6 and the survivor count (dose: 200.0 mg/kg/injection, schedule: Q04DX003 (ip), vehicle: DMSO) is reported as 0 of 6.

On to `CC(=O)OC1(OC(C)=O)C=C2OCOC2=CC1=O`, for which the survivor count (dose: 35.0 mg/kg/injection, schedule: Q01DX005 (ip), vehicle: Klucel (hydroxypropylcellulose) (HPC)) is on record as 0 of 6.

For `C=CCC1OC(COC(=O)c2ccccc2)C(OC(=O)c2ccccc2)C1OC(=O)c1ccccc1` (configuration not stated), the T/C (dose: 178.0 mg/kg/injection, schedule: Q01DX005 (ip), vehicle: Klucel (hydroxypropylcellulose) (HPC)) was 126 % of control.

Regarding `Cc1ccc(C(=O)Nc2ccncc2)cc1`, the survivor count runs as follows: under setting [2], 3 of 6; under setting [3], 0 of 6; under setting [4], 0 of 6; under setting [1], 0 of 6.

In the case of `CCc1ccc(C(C)(C)C)cc1`, under setting [5], the T/C was 127 % of control and the survivor count is reported as 6 of 6. Moreover, where the note is “dose: 300.0 mg/kg/injection, schedule: Q01DX009 (ip), vehicle: saline with Tween-80”, the survivor count was 0 of 6.

Consider `CC[N+](C)(CC)CCSC1=Nc2ccccc2N=C(c2ccc(Sc3ccccc3)cc2)C1`, for which the survivor count is, setting by setting: (dose: 12.5 mg/kg/injection, schedule: Q01DX009 (ip), vehicle: Klucel (hydroxypropylcellulose) (HPC)) 2 of 6; under setting [2], 1 of 6; under setting [3], 0 of 6; under setting [4], 0 of 6; under setting [1], 0 of 6.

For the molecule `N=c1c2ccccc2nc2n1CCCCCCC2`, the survivor count (dose: 100.0 mg/kg/injection, schedule: Q04DX003 (ip), vehicle: Klucel (hydroxypropylcellulose) (HPC)) is reported as 0 of 6.

In the case of `Cn1c(C(C)(C)O)cnc1[N+](=O)[O-]`, the survivor count (dose: 100.0 mg/kg/injection, schedule: Q01DX009 (ip), vehicle: saline with Tween-80) is 6 of 6.

Turning to `CCOCc1ccc(C(=O)NCCCc2c(-c3ccccc3)nc(N)[nH]c2=O)cc1`, the survivor count is 6 of 6 (dose: 7.5 mg/kg/injection, schedule: Q01DX005 (ip), vehicle: Klucel (hydroxypropylcellulose) (HPC)); 6 of 6 (dose: 30.0 mg/kg/injection, schedule: Q01DX005 (ip), vehicle: Klucel (hydroxypropylcellulose) (HPC)); 6 of 6 (dose: 60.0 mg/kg/injection, schedule: Q01DX005 (ip), vehicle: Klucel (hydroxypropylcellulose) (HPC)); 6 of 6 under setting [6].

With `CCCOc1cc2c(cc1C(C)c1ccc(OCC)cc1)OCO2` (configuration not stated), the T/C is 126 % of control under setting [7] and 141 % of control [5 of 6 alive] under setting [9]. Further, the survivor count runs as follows: under setting [6], 6 of 6; under setting [8], 6 of 6; (dose: 240.0 mg/kg/injection, schedule: Q01DX005 (ip), vehicle: Klucel (hydroxypropylcellulose) (HPC)) 6 of 6; (dose: 480.0 mg/kg/injection, schedule: Q01DX005 (ip), vehicle: Klucel (hydroxypropylcellulose) (HPC)) 3 of 6.

For the molecule `CC(C)(/C=N/O)N1CC=CCC1`, the survivor count reads like this: (dose: 100.0 mg/kg/injection, schedule: Q04DX002 (ip), vehicle: saline with Tween-80) 0 of 6; (dose: 200.0 mg/kg/injection, schedule: Q04DX002 (ip), vehicle: saline with Tween-80) 0 of 6; (dose: 400.0 mg/kg/injection, schedule: Q04DX002 (ip), vehicle: saline with Tween-80) 0 of 6.

Consider `BrC[P+](CBr)(CBr)CBr`, for which the T/C reads like this: (dose: 12.5 mg/kg/injection, schedule: Q01DX009 (ip), vehicle: saline with Tween-80) 143 % of control; (dose: 25.0 mg/kg/injection, schedule: Q01DX009 (ip), vehicle: saline with Tween-80) 142 % of control; under setting [7], 130 % of control; (dose: 144.0 mg/kg/injection, schedule: Q01DX005 (ip), vehicle: saline with Tween-80) 128 and 130 % of control; under setting [8], 142 and 144 % of control; under setting [9], 125 and 133 % of control. Moreover, the T/C is, setting by setting: (dose: 400.0 mg/kg/injection, schedule: Q01DX005 (ip), vehicle: saline with Tween-80) 144 (2×), 150, 152 % of control [4 of 6 alive]; (dose: 666.6 mg/kg/injection, schedule: Q01DX005 (ip), vehicle: saline with Tween-80) 139 % of control; under setting [10], 148 % of control [4 of 6 alive]. The survivor count runs as follows: (dose: 666.67 mg/kg/injection, schedule: Q01DX005 (ip), vehicle: saline with Tween-80) 0 of 6; (dose: 800.0 mg/kg/injection, schedule: Q01DX005 (ip), vehicle: saline with Tween-80) 0 of 6; under setting [10], 0 of 6.

In the case of `CC(C)C1=CC2=C[C@H](O)[C@H]3C(C)(C)CCC[C@]3(C)C2=C(O)C1=O`, the survivor count (dose: 20.0 mg/kg/injection, schedule: Q01DX009 (ip), vehicle: saline with Tween-80) was 3 of 6 and 5 of 6.

For the molecule `C=CCOc1ccccc1N/N=C(\Cl)C(=O)OC`, the survivor count was 0 of 6 under setting [7] and 0 of 6 under setting [8].

`COC(=O)/C(C1=C(Br)C(=O)C(C)=C(Br)C1=O)=C1/CCCN1`: the survivor count runs as follows: (dose: 150.0 mg/kg/injection, schedule: Q04DX002 (ip), vehicle: Klucel (hydroxypropylcellulose) (HPC)) 1 of 6; (dose: 300.0 mg/kg/injection, schedule: Q04DX002 (ip), vehicle: Klucel (hydroxypropylcellulose) (HPC)) 2 of 6.

In the case of `Cc1cccc2c(NCCCCCCNc3cc(C)[n+](C)c4c(C)cccc34)cc(C)[n+](C)c12`, the survivor count reads like this: (dose: 50.0 mg/kg/injection, schedule: Q01DX005 (ip), vehicle: saline with Tween-80) 0 of 5; under setting [7], 0 of 5; under setting [8], 0 of 5.

On to `CON(Cc1ccc(C(=O)NC(C)C)cc1)Cc1ccc(C(=O)NC(C)C)cc1`, for which the survivor count (dose: 12.5 mg/kg/injection, schedule: Q01DX009 (ip), vehicle: other) is given as 6 of 6 and the survivor count (dose: 200.0 mg/kg/injection, schedule: Q01DX009 (ip), vehicle: other) is given as 6 of 6.

Take `O=C(NCCCl)Nc1[nH]c(=O)ncc1I`: the survivor count runs as follows: (dose: 15.0 mg/kg/injection, schedule: Q01DX005 (ip), vehicle: saline with Tween-80) 0 of 6; (dose: 30.0 mg/kg/injection, schedule: Q01DX005 (ip), vehicle: saline with Tween-80) 0 of 6; (dose: 60.0 mg/kg/injection, schedule: Q01DX005 (ip), vehicle: saline with Tween-80) 0 of 6; (dose: 120.0 mg/kg/injection, schedule: Q01DX005 (ip), vehicle: saline with Tween-80) 0 of 6; under setting [9], 0 of 6.

In the case of `Nc1ccccc1C(=O)Nc1ccccc1`, the survivor count reads like this: (dose: 50.0 mg/kg/injection, schedule: Q01DX009 (ip), vehicle: saline with Tween-80) 6 of 6; under setting [5], 6 of 6.

With `CC(C)(C)N1CCC1`, where the note is “dose: 200.0 mg/kg/injection, schedule: Q01DX005 (ip), vehicle: Klucel (hydroxypropylcellulose) (HPC)”, the survivor count is recorded as 0 of 6.

As to `CCOC(=O)c1cc2c(=O)c3c(ccc4ccccc43)oc2n(C)c1=O`, the survivor count by setting is: under setting [7], 4 of 5; under setting [8], 4 of 5.

Consider `CCCOc1ccc2c(NCCCCNc3c4ccccc4nc4cc(OCCC)ccc34)c3ccccc3nc2c1`, for which the survivor count (dose: 20.0 mg/kg/injection, schedule: Q01DX009 (ip), vehicle: other) is 2 of 6.

Take `NCCCC(NN)C(=O)O` (configuration not stated): the T/C (dose: 15.0 mg/kg/injection, schedule: Q01DX009 (ip), vehicle: saline) is 130 % of control.
